PubChem BioAssay AID1259424, University of Nebraska Medical Center – 2018
In all, the deposit lists about 14,000 reagents; shown is an unselected part. 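Higher correlation or smaller distance means closer resemblance to KSR1 loss; control wells, including KSR1 knockdowns, recur on many plates.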 Not stated in the record: the time to read-out.

Aim: 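Seek colon cancer survival genes behaving like KSR1, using a six-gene signature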 (primary screen)
System: human HCT116 colon cancer cells
Reagents: siRNA pool against human genes, 50 nM
Detection: 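Log2 levels of six mRNAs (branched-DNA multiplex), adjusted by two reference genes and the non-targeting median, then scored against the average KSR1 knockdown pattern as Pearson r and euclidean distance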
Reading the numbers: mean correlation with KSR1 profile and KSR1 correlation: higher = expression change more like KSR1 knockdown; mean distance from KSR1 profile: higher = expression change less like KSR1 knockdown

mean correlation with KSR1 profile | mean distance from KSR1 profile | KSR1 correlation, replicate 1 | KSR1 correlation, replicate 2 | KSR1 correlation, replicate 3 | Gene
0.396 | 1.59 | 0.434 | 0.0737 | 0.327 | MAP7D1
-0.789 | 2.74 | -0.672 | -0.884 | -0.684 | VNN3P
0.0384 | 1.67 | 0.0779 | -0.462 | 0.0134 | B3GAT1
-0.389 | 2.26 | -0.186 | -0.489 | -0.467 | RMDN3
0.158 | 2.34 | 0.259 | 0.0568 | -0.216 | EIF2AK4
0.453 | 1.89 | 0.596 | -0.0504 | 0.381 | SEZ6L
-0.312 | 1.91 | 0.0399 | -0.312 | -0.486 | CNTN3
0.15 | 2.51 | 0.157 | 0.132 | -0.0381 | FKBP4
-0.235 | 2.57 | -0.044 | -0.151 | -0.303 | VPREB1
0.0563 | 3.48 | -0.0713 | 0.423 | -0.18 | ZNF232
0.0266 | 1.48 | 0.0209 | 0.181 | -0.338 | VPS13C
0.703 | 1.49 | 0.878 | 0.68 | 0.243 | TOR1AIP1
0.188 | 3.04 | 0.226 | 0.229 | 0.338 | PI4KB
0.0504 | 1.8 | 0.166 | -0.21 | 0.0612 | KCNN3
-0.494 | 1.51 | -0.432 | -0.469 | -0.257 | EIF5B
0.322 | 1.64 | 0.588 | 0.222 | 0.229 | ONECUT2
-0.789 | 2.36 | -0.605 | -0.847 | -0.567 | IQCB1
0.597 | 3.54 | 0.501 | 0.563 | 0.568 | ZDHHC18
0.879 | 2.57 | 0.889 | 0.857 | 0.681 | IFFO1
0.502 | 1.78 | 0.543 | 0.476 | 0.392 | PRDM7
-0.538 | 2.68 | -0.729 | -0.504 | -0.537 | OR2A5
0.71 | 1.53 | 0.706 | 0.805 | 0.634 | TAAR6
0.3 | 2.46 | 0.186 | 0.217 | 0.422 | RNASE2
0.486 | 2.19 | -0.00892 | 0.493 | 0.608 | RASSF4
0.324 | 2.53 | 0.385 | 0.147 | 0.269 | NT5DC2
0.542 | 1.28 | 0.499 | 0.489 | 0.588 | HDAC7
-0.147 | 2.37 | -0.158 | -0.309 | -0.341 | PAX2
-0.257 | 2.24 | 0.179 | -0.353 | -0.341 | CIB2
0.358 | 1.68 | 0.243 | 0.498 | 0.434 | TEAD1
0.27 | 2.06 | 0.318 | 0.17 | 0.298 | SLC9A6
-0.282 | 1.71 | -0.499 | 0.0072 | -0.233 | CTSA
0.217 | 2.23 | 0.373 | 0.152 | 0.168 | OCEL1
0.0462 | 3.52 | 0.115 | 0.325 | -0.621 | AARS2
0.63 | 0.679 | 0.727 | 0.537 | 0.575 | EXOSC7
-0.302 | 1.13 | -0.0299 | 0.0878 | -0.657 | IRAK4
0.0692 | 2.62 | 0.0318 | 0.0833 | 0.169 | DENND2D
-0.283 | 4.33 | -0.244 | -0.0601 | -0.397 | CORO1C
0.199 | 2.56 | 0.177 | 0.109 | 0.254 | ERV3-2
-0.0958 | 1.78 | -0.0301 | 0.164 | -0.183 | ITGAE
-0.373 | 3.55 | -0.396 | -0.427 | -0.491 | TAGLN3
-0.31 | 2.62 | -0.345 | -0.0471 | -0.632 | ZNF230
0.661 | 0.886 | 0.677 | 0.531 | 0.652 | H3C2
0.925 | 2.83 | 0.904 | 0.902 | 0.879 | COXFA4L3
0.678 | 1.02 | 0.808 | 0.464 | 0.648 | PDLIM4
-0.34 | 1.55 | -0.354 | -0.507 | 0.0571 | SLC1A6
-0.0243 | 1.43 | -0.0216 | -0.203 | 0.088 | SGTB
0.761 | 1.22 | 0.567 | 0.537 | 0.717 | JAGN1
-0.148 | 3.82 | -0.0166 | -0.278 | -0.102 | LENEP
-0.0576 | 1.42 | 0.134 | -0.137 | -0.139 | ZFAND5
0.0301 | 1.54 | 0.005 | 0.082 | -0.143 | DPF2

7 of these entries, reformatted:
{"Gene":"IRAK4","mean correlation with KSR1 profile":-0.302,"mean distance from KSR1 profile":1.13,"KSR1 correlation, replicate 1":-0.0299,"KSR1 correlation, replicate 2":0.0878,"KSR1 correlation, replicate 3":-0.657}
{"Gene":"DENND2D","mean correlation with KSR1 profile":0.0692,"mean distance from KSR1 profile":2.62,"KSR1 correlation, replicate 1":0.0318,"KSR1 correlation, replicate 2":0.0833,"KSR1 correlation, replicate 3":0.169}
{"Gene":"CORO1C","mean correlation with KSR1 profile":-0.283,"mean distance from KSR1 profile":4.33,"KSR1 correlation, replicate 1":-0.244,"KSR1 correlation, replicate 2":-0.0601,"KSR1 correlation, replicate 3":-0.397}
{"Gene":"ERV3-2","mean correlation with KSR1 profile":0.199,"mean distance from KSR1 profile":2.56,"KSR1 correlation, replicate 1":0.177,"KSR1 correlation, replicate 2":0.109,"KSR1 correlation, replicate 3":0.254}
{"Gene":"ITGAE","mean correlation with KSR1 profile":-0.0958,"mean distance from KSR1 profile":1.78,"KSR1 correlation, replicate 1":-0.0301,"KSR1 correlation, replicate 2":0.164,"KSR1 correlation, replicate 3":-0.183}
{"Gene":"TAGLN3","mean correlation with KSR1 profile":-0.373,"mean distance from KSR1 profile":3.55,"KSR1 correlation, replicate 1":-0.396,"KSR1 correlation, replicate 2":-0.427,"KSR1 correlation, replicate 3":-0.491}
{"Gene":"ZNF230","mean correlation with KSR1 profile":-0.31,"mean distance from KSR1 profile":2.62,"KSR1 correlation, replicate 1":-0.345,"KSR1 correlation, replicate 2":-0.0471,"KSR1 correlation, replicate 3":-0.632}
